Assay results: paper PMC8224859

B1: AtRFI2A (enzyme, UniProt O82239 1-358)
chain: MAGAKDSGCDDDLRIAGGCDPGKRGNPEDSSSPVEVSCSICLESVLDDGTRSKAKLQCGHQFHLDCIGSAFNMKGAMQCPNCRNVEKGQWLYANGSTRPFPEFSMEDWIPEEDLYGLSYPEMQYRVHWCPFGELSQAAASFEELEPATTTYHTEFHGHHAAAVNHSYLAYVGPGPAATPRTSDNNSTDDHPWNSHSNDHFHQLPVAPQYHHHSPSFSLPAAHVVDGEVDSSAARGLPYAHPFLFSHRSNQRSSPAINSYQGSSTQMREQHHAYNHQRQQHHANGPTLASPLISMTRRGLPPPPPPPPMPDQNVGFFIYPGGHHEPETDQIHAWERDWFPHFPVPSNHRTIPSLWHRHF

Biological target: BD-Mer1_(23-341) (U. maydis)
Assay: two-hybrid; directed spotting assay: bait in pGBKT7 (strain AH109), prey in pADGG (strain Y187); growth of diploids on intermediate (-L, -W, -H) or high stringency (-L, -W, -H, -A) media 4 days post-inoculation

Molecule | binding
AtRFI2B (from UniProt F4J8E5) (enzyme) | binds
B1 | binds

No constants are given. Whether binding was seen depends on the method and setting. Binding can be weak; no strength is given.
